# Test results reported in patent US20100068147A1, “DENGUE DIAGNOSIS AND TREATMENT” (Agency for Science , Technology and Research, priority 2006, published 2010).
# For at least one compound, name, drawing or mass did not settle the structure.
# Columns and labels:
# IP-10 = IP-10 ELISA of cell culture supernatants, HepG2 infection model; format: cell-based, human; settings: data not shown
# I-TAC = I-TAC ELISA of cell culture supernatants, HepG2 infection model; format: cell-based, human; settings: data not shown
structure (smiles),measurement,setting,value
"C[C@@H]1C[C@H]2[C@@H]3CCC4=CC(=O)C=C[C@]4(C)[C@@]3(F)[C@@H](O)C[C@]2(C)[C@@]1(O)C(=O)CO [Dexamethasone, dexamethasone]",IP-10 production,IP-10,inhibited
same,I-TAC production,I-TAC,inhibited
